Experiment [1] concerns the target CT584 (Chlamydia trachomatis L2/434) (UniProt O84588). Put plainly: two-hybrid; bacterial adenylate cyclase two-hybrid (BACTH) in Cya-deficient E. coli BTH101; T18 and T25 fusions; blue colonies on LB with IPTG and X-gal, 24 h at 28°C, then β-galactosidase activity with ONPG; Fig. 1B and 1C.
Experiment [2] concerns the target T1, Scc4 (Chlamydia trachomatis L2/434), O84670.
T1 chain: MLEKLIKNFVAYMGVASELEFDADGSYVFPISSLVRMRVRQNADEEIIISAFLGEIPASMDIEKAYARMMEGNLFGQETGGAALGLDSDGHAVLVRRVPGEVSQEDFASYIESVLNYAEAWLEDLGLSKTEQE
The description is as above. The conditions noted are these: remark: other sources report otherwise.

Results are given in words; binding and its absence hold for the method and conditions named. Some results given as binding are weak or reduced against the parent protein; the word gives no strength.

B1: CT584 (protein, UniProt O84588 1-183)
chain: MTTKPKTLEIDNNTFLLLEGNLKRIFATPIGYTTFREFQNVVFNCAQGQQELANFLFEMLINGKLLQELPAGQKQSAQSLIVQFMMPIRVAKDIHERGEFINFITSDMLAQQERCVFLNRLSRVDGQEFLLMTDVQNTCHLIRHLLSRLLEAQKNPIGEKNLQEIQEDLDSLRAHFEELTKSV
For B1, the binding entry in experiment [1] is “binds”.

B2: Scc4, O84670 1-133 (protein)
chain: T1 chain
Take B2: the binding entry in experiment [2] was “binds”.
